The structures appear in SMILES notation.

By UniProt entry, the sequences of proteins in these tests, tags left out. Residues count along the entry.
UniProt P04757, 26-499: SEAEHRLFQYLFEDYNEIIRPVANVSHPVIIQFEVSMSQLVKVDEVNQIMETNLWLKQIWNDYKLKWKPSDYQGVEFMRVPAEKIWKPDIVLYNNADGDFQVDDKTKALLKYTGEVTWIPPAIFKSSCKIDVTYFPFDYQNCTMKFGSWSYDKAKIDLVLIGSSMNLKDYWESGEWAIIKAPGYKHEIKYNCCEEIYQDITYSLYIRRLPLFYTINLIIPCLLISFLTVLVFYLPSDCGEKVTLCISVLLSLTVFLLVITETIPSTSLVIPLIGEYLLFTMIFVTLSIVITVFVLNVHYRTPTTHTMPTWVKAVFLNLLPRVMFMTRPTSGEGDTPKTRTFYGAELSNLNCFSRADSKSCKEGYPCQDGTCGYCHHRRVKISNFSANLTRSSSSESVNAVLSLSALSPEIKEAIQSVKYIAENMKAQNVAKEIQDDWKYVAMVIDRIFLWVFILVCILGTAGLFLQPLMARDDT
UniProt P12392, 21-495: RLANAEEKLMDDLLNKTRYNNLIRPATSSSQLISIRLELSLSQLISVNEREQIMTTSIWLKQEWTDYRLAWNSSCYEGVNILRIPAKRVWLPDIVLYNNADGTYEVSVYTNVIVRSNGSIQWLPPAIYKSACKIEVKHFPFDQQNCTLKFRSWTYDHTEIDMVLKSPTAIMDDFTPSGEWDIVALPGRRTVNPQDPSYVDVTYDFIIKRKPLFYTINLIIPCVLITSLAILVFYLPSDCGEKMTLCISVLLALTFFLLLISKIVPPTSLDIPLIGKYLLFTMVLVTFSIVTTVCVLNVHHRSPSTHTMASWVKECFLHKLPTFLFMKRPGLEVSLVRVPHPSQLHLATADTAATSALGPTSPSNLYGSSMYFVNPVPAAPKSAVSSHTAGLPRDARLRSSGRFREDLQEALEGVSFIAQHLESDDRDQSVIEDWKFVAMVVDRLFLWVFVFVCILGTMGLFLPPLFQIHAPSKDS

For the experiment, the target named is α3β4 nAChR (Rattus norvegicus, UniProt P04757+P12392). Nature of the experiment: Nicotine-stimulated 86Rb+ efflux assay, KXα3β4R2 cell line. The class given is cell-based. More on the design: host or cells: HEK293 (KXα3β4R2). On the procedure:
After the prediction has been done based on clustering the actual values of IC50 were determined using the nicotine-stimulated ^86Rb^+ efflux assay on cell line KXα3β4R2.

The term IC50 denotes the concentration at which inhibition is half-maximal. Turning to `COC(=O)C1=C(C)NC(C)=C(C(=O)OC)C1c1ccccc1[N+](=O)[O-]` [nifedipine], the IC50 was determined as 24.7 µM.

The values are drawn from patent US7749984B2, “Computer-based model for identification and characterization of non-competitive inhibitors of nicotinic acetylcholine receptors and related ligand-gated ion channel receptors” (priority 2003, dated 2010).
